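Cell assay of Leishmania donovani living inside macrophages; the read-out is not stated. Tested at 30 µM. Direction is inferred from retests: higher values go with stronger inhibition. Of about 69,000 compounds tested this way, about 1,000 (1.5%) reached 50% or more in at least one test.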

Results are given as percent effect.
How 0% and 100% were set is not recorded. Most values in the screen are low, and negative values occur.
This is an unselected part of the compounds tested.
Two or more numbers in one place are separate tests of the same structure; such repeats can differ widely.

structure	percent effect
COC(=O)c1ccc(N2CCN(C(=O)c3cnc(C)cn3)C(C)C2)cc1 (configuration not stated)	4.179
CCn1cc(CNc2ccc(F)c(F)c2)cn1	-57.89
CCC(C)NC(=O)Cn1ncc2c1c(C)nn2CC (configuration not stated)	-3.357
CNC(=O)c1ccc(CNC(=O)NCCN(C)C2CCCC2)cc1	6.523
CN(Cc1ccsc1)C(=O)c1cccc(S(=O)(=O)NCC2CCCO2)c1 (configuration not stated)	-0.3468
COc1c(C2CCCN2C(=O)c2ccnc(C)n2)c(C)nn1C (configuration not stated)	20.06
Cn1nc(CN2CCCC2)c2c1CN(C(=O)c1cccnc1)CC2.O=C(O)C(F)(F)F.O=C(O)C(F)(F)F	17.91
CCc1nc(NS(=O)(=O)c2cc(C)cc(F)c2)no1	23.1
N#Cc1cc2c(=O)n(CC(O)Cc3ccccc3)ccc2[nH]c1=O (configuration not stated)	33.38
O=C1CN(c2ccc(CNC(=O)NCC3CCOC3)cc2)CCN1 (configuration not stated)	-11.41
O=C(O)C(F)(F)F.O=C1COC2(CCN(c3ccccn3)CC2)CN1	1.026
[H][C@@]12CCCO[C@]1([H])[C@H](N(C)C)CN(c1nnc(C)s1)C2	-15.2
Cc1cc(NCc2ccc(O)cc2)n2nc(C)cc2n1	6.472
COCC(=O)NC1CCN(c2cccc(OC(F)(F)F)c2)C1=O (configuration not stated)	14.73
CN(C(=O)c1cccc(C(=O)NS(C)(=O)=O)c1)c1ccccc1	0.797
COc1cccc(OCC(=O)NS(=O)(=O)c2cccnc2)c1	18.88
Cc1ccc(OCC(=O)NS(=O)(=O)c2cccnc2)cc1C	2.834
O=C(CC1CN(Cc2ccccc2)CCO1)NC1CCCC1 (configuration not stated)	-5.067
COCCCOc1ccc(C(=O)N(C)Cc2cccc(O)c2)cn1	7.215
CCC[C@@H]1CN(Cc2ccccc2C#N)C[C@H]1NC(C)=O	21.24
CCOCCCNC(=O)NC(C)c1ccc(-n2cncn2)cc1 (configuration not stated)	24.8
Cc1nn(C)c(N2CCOCC2)c1CNC(C)c1ccco1 (configuration not stated)	15.1
COc1cc(CCC(=O)NCC2CCCN2C)ccc1OCC(F)(F)F (configuration not stated)	31.23
COc1cc(C(=O)O)ccc1OCC(=O)NCCc1ccccc1	36.8
CCn1cc(NC(=O)N2CCN(C(=O)Oc3ccccc3)CC2)cn1	23.62
CCn1cnnc1C1CCN(C(=O)c2cc(F)ccc2OC)CC1	19.95
CN(C)C(=O)N1CCn2cc(CNC(=O)CC3CC3)nc2C1	10.07
O=C(O)C(c1ccc2c(c1)OCCO2)N1CCC(N2CCOCC2)CC1 (configuration not stated)	18.97
COc1ccccc1-c1c[nH]c(C2CCCN2)n1.Cl.Cl (configuration not stated)	27.37
CC(=O)Nc1ccc2nn(C(C)C)cc2c1	-70.37
CN1CCc2[nH]nc(C(=O)N3CCCC4(CC3)CNC(=O)O4)c2C1 (configuration not stated)	25.41
CC(=O)NCCCNC(=O)Nc1ccccc1-n1nc(C)cc1C	-1.995
COc1cc(Oc2ccc(C(F)(F)F)cn2)ccc1CN1CCCC1	61.15
[H][C@@]12C[C@H](C(=O)N3CCCC3)[C@@]([H])(CN(C(=O)NCC3CCCCC3)C1)O2	6.408
Cc1nc2ccnn2c(C)c1CCC(=O)N1CCN(C2CC2)CC1	-1.683
CCOC(=O)C1CSCCN1C(=O)c1ccc(-n2nc(C)cc2C)cc1 (configuration not stated)	5.516
CC(C)c1ccc(CC2(C)Cc3cc(CC(=O)O)ccc3O2)cc1 (configuration not stated)	9.293
Cc1nc(C(=O)N2CCC(c3nnc(Cn4ccnc4)n3C)CC2)cs1	16.9
Cc1cnn(CC2CCN(CC(O)c3ccc(F)cc3)CC2)c1 (configuration not stated)	-4.115
O=C(CCNc1ncccn1)NCc1cccc(OC(F)F)c1	27.93
CC1CCc2nc(O)c(C(=O)NCc3ccccn3)cc2C1 (configuration not stated)	-13.99
CC(=O)N1CCC1c1cc(N2CCNC(=O)C2)nc(C)n1 (configuration not stated)	23.92
O=C(NCC(F)F)c1ccc(S(=O)(=O)NCCc2cn[nH]c2)cc1	6.747
COc1cccc(SCC(=O)N2CCC(N3CCCC3=O)CC2)c1	-18.84
N#Cc1cc(F)c(NCCc2ccc(F)cc2)c(F)c1	-12.4
C=C(C)COc1cccc(C(=O)N(C)Cc2cc(CC)no2)c1	17.08
Cc1csc2c(=O)n3c(nc12)CCN(C(=O)c1cccnc1)CC3	27.66
CS(=O)(=O)Cc1ccc(NC(=O)c2cccnc2)cc1F	11.84
Cc1cc(C(=O)N2CCOC(c3ccc(Cl)c(Cl)c3)C2)[nH]n1 (configuration not stated)	36.34
Cn1cc(CN2CCC3(CCCN(C(=O)c4cnccn4)C3)C2)cn1 (configuration not stated)	26.32
Cc1nc(-c2nnc[nH]2)sc1C(=O)N(Cc1cccnc1)C1CC1	20.9
OCC(CO)N1CCC(c2nccnc2Nc2cnccn2)CC1	-2.671
COc1ccc(C(=O)NS(=O)(=O)c2cncc(Br)c2)c(OC)c1	-5.873
CC(C)Cc1nnc(NCc2ccsc2)o1	1.242
Cn1cc(-c2nnn3c2COC(CNCc2ccccn2)C3)cn1 (configuration not stated)	12.93
CCN1CCCC(O)(c2nc(C)c(CCOc3ccccc3Cl)s2)CC1 (configuration not stated)	29.58
CCN(Cc1ccncc1)CC1(O)CCN(C(=O)c2cnn(C)c2)C1 (configuration not stated)	24.46 and 7.167
c1cncc(NCCNC2CCSCC2)c1	13.91
O=C1CC2(CCCCC2)C(=O)N1CC(O)COCc1ccccc1F (configuration not stated)	12.05
Nc1nc(N)c2c(n1)OC1(CCN(Cc3nccs3)C1)C2 (configuration not stated)	25.15
COCCN1CCC(CNC(=O)C2(c3cccc(Cl)c3)CC2)C1 (configuration not stated)	34.98
CCCS(=O)(=O)N1CCC(NC(=O)c2ccc(C)s2)CC1	12.83
CC(C)(C)c1nc(CN(CCO)Cc2cc(Br)ccc2F)no1	-5.981
[H][C@@]12CCN(C(=O)c3ccnnc3)C[C@@]1([H])O[C@H](c1nc(C)c(C)s1)C2	6.612

Some entries from above, unchanged:

structure	percent effect
O=C(O)C(c1ccc2c(c1)OCCO2)N1CCC(N2CCOCC2)CC1 (configuration not stated)	18.97
[H][C@@]12CCCO[C@]1([H])[C@H](N(C)C)CN(c1nnc(C)s1)C2	-15.2
CCN1CCCC(O)(c2nc(C)c(CCOc3ccccc3Cl)s2)CC1 (configuration not stated)	29.58
C=C(C)COc1cccc(C(=O)N(C)Cc2cc(CC)no2)c1	17.08

From ChEMBL document CHEMBL3988442, “University of Dundee, Small-Polar-MMV Screening Library” (2021).